# From patent US20250002610A1
# These are yes or no findings as the source states them, for the method shown.
# B1: IgG1-DR4-FERR (antibody, V domains shown)
# VH: QVQLQESGPGLVKPSGTLSLTCAVSGGSISSYSWWSWIRQPPGKGLEWIGELYHSGSTNYNPSLKSRVTISVDKSKNQFSLKLRSVTAADTAVYYCVRGVATIDYWGQGTLVTVSS
# VL: QSALTQPPSASGSPGQSVTISCTGTSSDVGGYNFVSWYQQDPGKAPKLLIYEVTKRPSGVPDRFSGSKSGNTASLTVSGLQAEDEADYYCSSYAGSNNVMFGGGTKLTVLG
# How the values were obtained:
# [1] = molecular target: T1, pig DR4 with death domain deletion on ExpiCHO-S cells (pig (Sus scrofa)); experiment: flow cytometry on ExpiCHO-S cells transiently expressing pig DR4 (death domain deleted), gMFI PE; concentration of the bars not given
# T1 sequence: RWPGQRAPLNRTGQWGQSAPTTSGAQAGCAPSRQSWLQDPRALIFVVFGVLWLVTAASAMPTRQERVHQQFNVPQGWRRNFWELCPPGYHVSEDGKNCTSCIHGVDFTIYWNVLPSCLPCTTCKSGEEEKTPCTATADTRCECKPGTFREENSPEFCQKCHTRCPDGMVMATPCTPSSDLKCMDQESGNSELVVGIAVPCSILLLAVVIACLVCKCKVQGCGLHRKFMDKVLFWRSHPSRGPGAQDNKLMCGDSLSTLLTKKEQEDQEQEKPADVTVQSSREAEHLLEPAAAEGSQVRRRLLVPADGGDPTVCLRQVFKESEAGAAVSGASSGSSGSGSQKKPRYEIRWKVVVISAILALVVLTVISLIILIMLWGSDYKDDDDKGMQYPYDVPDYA
# [2] = molecular target: T2, dog DR4 with death domain deletion on ExpiCHO-S cells (dog (Canis familiaris)); experiment: flow cytometry on ExpiCHO-S cells transiently expressing dog DR4 (death domain deleted), gMFI PE; concentration of the bars not given
# T2 sequence: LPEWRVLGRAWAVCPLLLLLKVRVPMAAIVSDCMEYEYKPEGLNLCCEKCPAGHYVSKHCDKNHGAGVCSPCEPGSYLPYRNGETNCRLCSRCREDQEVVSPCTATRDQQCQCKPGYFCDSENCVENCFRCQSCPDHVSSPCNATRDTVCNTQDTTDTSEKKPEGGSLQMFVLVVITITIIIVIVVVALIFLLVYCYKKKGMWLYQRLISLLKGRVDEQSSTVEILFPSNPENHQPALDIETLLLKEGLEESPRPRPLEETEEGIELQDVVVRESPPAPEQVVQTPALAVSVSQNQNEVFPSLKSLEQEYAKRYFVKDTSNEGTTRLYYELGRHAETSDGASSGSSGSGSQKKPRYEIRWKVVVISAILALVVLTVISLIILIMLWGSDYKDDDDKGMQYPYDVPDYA
# [3] = molecular target: T3, mouse DR with death domain deletion on ExpiCHO-S cells (mouse (Mus musculus)); experiment: flow cytometry on ExpiCHO-S cells transiently expressing mouse DR (death domain deleted), gMFI PE; concentration of the bars not given
# T3 sequence: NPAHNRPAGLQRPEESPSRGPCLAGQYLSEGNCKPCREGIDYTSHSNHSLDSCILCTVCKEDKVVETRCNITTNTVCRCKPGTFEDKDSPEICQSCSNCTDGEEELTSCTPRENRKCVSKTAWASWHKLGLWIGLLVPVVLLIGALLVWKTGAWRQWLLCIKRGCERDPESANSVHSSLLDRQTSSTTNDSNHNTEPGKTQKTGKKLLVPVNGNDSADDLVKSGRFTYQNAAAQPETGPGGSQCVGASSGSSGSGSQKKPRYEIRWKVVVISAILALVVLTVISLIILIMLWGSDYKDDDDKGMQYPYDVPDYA
# [4] = molecular target: T3, mouse DR with death domain deletion on ExpiCHO-S cells (mouse (Mus musculus)); experiment: flow cytometry, ExpiCHO-S cells expressing mouse DR
# [5] = molecular target: T2, dog DR4 with death domain deletion on ExpiCHO-S cells (dog (Canis familiaris)); experiment: flow cytometry, ExpiCHO-S cells expressing dog DR4
# [6] = molecular target: T4, rabbit DR4 with death domain deletion on ExpiCHO-S cells (rabbit (Oryctolagus cuniculus)); experiment: flow cytometry, ExpiCHO-S cells expressing rabbit DR4
# T4 sequence: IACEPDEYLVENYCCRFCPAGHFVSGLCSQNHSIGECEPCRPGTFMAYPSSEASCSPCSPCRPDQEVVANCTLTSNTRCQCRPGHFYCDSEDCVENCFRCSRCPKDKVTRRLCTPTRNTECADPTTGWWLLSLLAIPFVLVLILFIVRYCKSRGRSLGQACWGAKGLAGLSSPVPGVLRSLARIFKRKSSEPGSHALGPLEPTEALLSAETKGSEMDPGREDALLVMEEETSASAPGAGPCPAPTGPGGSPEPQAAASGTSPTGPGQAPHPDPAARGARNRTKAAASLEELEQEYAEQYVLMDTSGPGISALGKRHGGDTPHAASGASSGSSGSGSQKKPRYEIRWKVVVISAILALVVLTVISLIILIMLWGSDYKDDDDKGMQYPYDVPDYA
# [7] = molecular target: T4, rabbit DR4 with death domain deletion on ExpiCHO-S cells (rabbit (Oryctolagus cuniculus)); experiment: flow cytometry on ExpiCHO-S cells transiently expressing rabbit DR4 (death domain deleted), gMFI PE; concentration of the bars not given
# [8] = molecular target: T1, pig DR4 with death domain deletion on ExpiCHO-S cells (pig (Sus scrofa)); experiment: flow cytometry, ExpiCHO-S cells expressing pig DR4
binder,measurement,setting,value
B1,binding,[1],no binding
same,binding,[2],no binding
same,binding,[3],no binding
same,binding,[4],no binding (tested: 30 µg/mL)
same,binding,[5],no binding (tested: 30 µg/mL)
same,binding,[6],no binding (tested: 30 µg/mL)
same,binding,[7],no binding
same,binding,[8],no binding (tested: 30 µg/mL)
